This note sets out measurements from PubChem BioAssay AID248 (DTP/NCI, 2004).

The structures appear in SMILES notation. The list shows only some results of the screen, not a fair sample: it gathers tests that were run many times, whatever their T/C, doses with no T/C, and many T/C values between a quarter and a half above the control. Further doses and runs are listed elsewhere. T/C gives the treated animals as a percentage of the vehicle group. Some doses have a count of surviving animals in place of a T/C: the source files T/C as zero there, which appears to mark a toxic dose or a test without result, not a measured value. Some survivor counts are full or nearly so, which does not show that the dose was tolerated: the source hardly ever lists a survival T/C far under the control, and the zero likely stands for such cases as well. Counts of survivors are from the toxicity check (mostly the fifth day) where no day follows; animals may have died later. Schedule codes are those of the source, taken here to give the interval after Q, in days (D) or hours (H), and the number of doses after X. Some entries hold several experiments; their values stand side by side, smallest first. For survival time, this PubChem deposit counts one and a half times the control or more as active, and values a quarter to a half above the control carry no call in these data; other NCI protocols may use other cut-offs. Some T/C values carry the count of animals alive at the toxicity check (mostly the fifth day); without a count, all were alive then.

The test system of this experiment is L1210 leukemia ip in BDF1 mice, survival T/C. Nature of the experiment: NCI In Vivo Anticancer Drug Screen. Data for tumor model L1210 Leukemia (intraperitoneal) in B6D2F1 (BDF1) mice. The following applies: T/C endpoint: mean survival time, higher T/C = longer survival.
Where [1] appears, read: dose: 200.0 mg/kg/injection, schedule: Q01DX009 (ip), vehicle: saline with Tween-80.
Where [2] appears, read: dose: 200.0 mg/kg/injection, schedule: Q04DX003 (ip), vehicle: saline with Tween-80.
[3] abbreviates: dose: 400.0 mg/kg/injection, schedule: Q04DX003 (ip), vehicle: saline with Tween-80.
Setting [4] is: dose: 100.0 mg/kg/injection, schedule: Q01DX009 (ip), vehicle: saline with Tween-80.
Setting [5] is: dose: 200.0 mg/kg/injection, schedule: Q04DX003 (ip), vehicle: saline.
Setting [6] is: dose: 400.0 mg/kg/injection, schedule: Q04DX003 (ip), vehicle: saline.
The mark [7] stands for this setting: dose: 100.0 mg/kg/injection, schedule: Q01DX009 (ip), vehicle: Klucel (hydroxypropylcellulose) (HPC).
[8] abbreviates: dose: 200.0 mg/kg/injection, schedule: Q01DX009 (ip), vehicle: Klucel (hydroxypropylcellulose) (HPC).
The mark [9] stands for this setting: dose: 400.0 mg/kg/injection, schedule: Q04DX002 (ip), vehicle: Klucel (hydroxypropylcellulose) (HPC).
Setting [10] is: dose: 200.0 mg/kg/injection, schedule: Q01DX001 (ip), vehicle: saline.
The mark [11] stands for this setting: dose: 400.0 mg/kg/injection, schedule: Q01DX001 (ip), vehicle: saline.
[12] abbreviates: dose: 400.0 mg/kg/injection, schedule: Q01DX009 (ip), vehicle: Klucel (hydroxypropylcellulose) (HPC).
Where [13] appears, read: dose: 400.0 mg/kg/injection, schedule: Q04DX002 (ip), vehicle: saline with Tween-80.
Where [14] appears, read: dose: 400.0 mg/kg/injection, schedule: Q01DX001 (ip), vehicle: carboxymethylcellulose (CMC).

On to `c1ccc2c(c1)[nH]c1ccncc12`, for which the survivor count is, setting by setting: under setting [1], 0 of 6; under setting [2], 4 of 6; (dose: 400.0 mg/kg/injection, schedule: Q01DX009 (ip), vehicle: saline with Tween-80) 0 of 6; under setting [3], 3 of 6.

Take `N#CCOC(=O)c1ccc[nH]1`: the survivor count was 0 of 6 (dose: 75.0 mg/kg/injection, schedule: Q01DX001 (ip), vehicle: acetone); 0 of 6 (dose: 150.0 mg/kg/injection, schedule: Q01DX001 (ip), vehicle: acetone); 0 of 6 (dose: 300.0 mg/kg/injection, schedule: Q01DX001 (ip), vehicle: acetone).

`C#CCOC(=O)C(Cl)(Cl)Cl`: the survivor count (dose: 400.0 mg/kg/injection, schedule: Q04DX002 (ip), vehicle: other) is given as 1 of 3.

With `COc1cccc(/C=C2\N=C(c3ccccc3)OC2=O)c1`, the survivor count is, setting by setting: under setting [4], 6 of 6; under setting [1], 6 of 6.

For `CCOC(=O)c1ccc(NCC(C)(C)N(C)C)cc1`, the survivor count is, setting by setting: (dose: 100.0 mg/kg/injection, schedule: Q04DX003 (ip), vehicle: saline) 1 of 6; under setting [5], 0 of 6; under setting [6], 0 of 6.

With `Cc1cn(Cc2ccc(Cl)cc2Cl)c(C)n1`, the T/C by setting is: (dose: 50.0 mg/kg/injection, schedule: Q01DX009 (ip), vehicle: Klucel (hydroxypropylcellulose) (HPC)) 95, 97, 101, 111 % of control; under setting [7], 98 [5 of 6 alive] and 107 % of control [4 of 6 alive]; (dose: 100.0 mg/kg/injection, schedule: Q04DX002 (ip), vehicle: Klucel (hydroxypropylcellulose) (HPC)) 89 [2 of 3 alive], 107, 116, 120 % of control. The survivor count by setting is: under setting [7], 1 of 3; under setting [8], 0 of 3 and 0 of 6; (dose: 200.0 mg/kg/injection, schedule: Q04DX002 (ip), vehicle: Klucel (hydroxypropylcellulose) (HPC)) 0 of 3, 0 of 6, 2 of 6; under setting [9], 0 of 3 and 0 of 6.

On to `O=P(O)(O)c1cccc(Oc2ccccc2)c1`, for which the survivor count (dose: 300.0 mg/kg/injection, schedule: Q01DX001 (ip), vehicle: saline) is on record as 0 of 6.

Regarding `COc1ccc(C(=O)OCc2ccccc2CN(C)C)cc1`, the survivor count (dose: 400.0 mg/kg/injection, schedule: Q04DX002 (ip), vehicle: saline) was 0 of 3.

For the compound `CC(=O)C(C(C)=O)C(c1ccc2c(c1)OCO2)C(C(C)=O)C(C)=O`, the survivor count under setting [4] is reported as 6 of 6, the survivor count under setting [1] is 6 of 6, the survivor count under setting [2] was 5 of 6 and the survivor count under setting [3] is given as 6 of 6.

`C#CC(=O)c1ccccc1`: the survivor count runs as follows: (dose: 9.4 mg/kg/injection, schedule: Q01DX009 (ip), vehicle: saline with Tween-80) 3 of 6; (dose: 18.8 mg/kg/injection, schedule: Q01DX009 (ip), vehicle: saline with Tween-80) 0 of 6; (dose: 75.0 mg/kg/injection, schedule: Q01DX001 (ip), vehicle: saline) 0 of 6; (dose: 100.0 mg/kg/injection, schedule: Q01DX001 (ip), vehicle: saline) 0 of 6; under setting [10], 0 of 6; under setting [11], 0 of 6.

As for `Cc1ccc(OCCOc2ccc(C(=O)O)cc2)cc1`, the survivor count is, setting by setting: under setting [7], 0 of 6; under setting [8], 0 of 6; under setting [12], 5 of 6.

As to `CC1(C)CSC(=S)N1CCC#N`, the survivor count by setting is: (dose: 150.0 mg/kg/injection, schedule: Q01DX001 (ip), vehicle: other) 0 of 6; (dose: 300.0 mg/kg/injection, schedule: Q01DX001 (ip), vehicle: other) 0 of 6.

In the case of `C[N+](C)(C)c1cc2c(nn1)Nc1ccccc1S2`, the survivor count under setting [10] was 2 of 4 and the survivor count under setting [11] is listed as 1 of 4.

As to `CCC(O)C(CC(C)N(C)C)(c1ccccc1)c1ccccc1` (stereo not given), the survivor count by setting is: under setting [10], 0 of 4; under setting [11], 0 of 4.

Turning to `Cc1cc(Cl)ccc1NC(=O)COc1ccc(Cl)cc1`, the survivor count reads like this: under setting [7], 6 of 6; under setting [8], 3 of 6; under setting [12], 4 of 6.

As for `O=C1CN(CCN2CC(=O)NC2=S)C(=S)N1`, the survivor count under setting [13] is reported as 0 of 3.

Take `NC(=O)c1ccc[n+](CC(=O)NCc2ccc(Cl)cc2)c1`: the survivor count under setting [5] was 2 of 6 and the survivor count under setting [6] was 0 of 6.

For the compound `Cc1nc(N)nc(N)c1CCCCc1ccc(N)cc1`, the survivor count (dose: 400.0 mg/kg/injection, schedule: Q01DX001 (ip), vehicle: Klucel (hydroxypropylcellulose) (HPC)) was 0 of 3.

Consider `Cn1[nH]c(=O)c2ncccc2c1=O`, for which the T/C under setting [9] was 126 % of control [2 of 3 alive]. Also, the survivor count (dose: 800.0 mg/kg/injection, schedule: Q04DX002 (ip), vehicle: saline) was 1 of 3.

Consider `O=C(O)/C(=C/c1ccccc1)c1ccccc1`, for which the survivor count under setting [13] was 0 of 3 and 2 of 3.

Regarding `CC1CN(Cc2ccc([N+](=O)[O-])cc2)CC(C)N1N` (stereo not given), the survivor count was 3 of 6 (dose: 200.0 mg/kg/injection, schedule: Q01DX005 (ip), vehicle: saline with Tween-80) and 0 of 6 (dose: 400.0 mg/kg/injection, schedule: Q01DX005 (ip), vehicle: saline with Tween-80).

For `Cn1c(=O)c2ncn(CC3CCCCC3)c2n(C)c1=O`, the survivor count under setting [14] is given as 4 of 4.

`CCCCCCCCCCS`: the survivor count under setting [14] is 1 of 4.
